Source: paper doi:10.1101/2024.12.17.628051
Results are given in words; binding and its absence hold for the method and conditions named. Some entries that bind do so weakly or less than the wild type. For some assays here: Tags and fused reporters may be left off the sequences shown.

Legend:
[1] = target: T1, His-STRAD (residues 59-431), wild type (C160) (UniProt Q7RTN6); assay: SEC
T1 sequence: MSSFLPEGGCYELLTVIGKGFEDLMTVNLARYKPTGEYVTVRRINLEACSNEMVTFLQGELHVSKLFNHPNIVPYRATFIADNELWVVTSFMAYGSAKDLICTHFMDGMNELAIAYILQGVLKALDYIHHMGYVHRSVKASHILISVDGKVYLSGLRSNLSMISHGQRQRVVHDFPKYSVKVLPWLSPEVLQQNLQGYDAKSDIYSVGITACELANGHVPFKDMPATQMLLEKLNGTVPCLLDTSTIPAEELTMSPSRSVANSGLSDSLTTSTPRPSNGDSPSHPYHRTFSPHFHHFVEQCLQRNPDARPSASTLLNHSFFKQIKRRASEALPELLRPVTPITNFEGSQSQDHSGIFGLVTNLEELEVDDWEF

[2] = target: His-STRAD (residues 59-431 with C160S mutation) (UniProt Q7RTN6); assay: SEC

B1: MO25 (residues 1-341) (protein, UniProt Q9Y376 1-341)
chain: MPFPFGKSHKSPADIVKNLKESMAVLEKQDISDKKAEKATEEVSKNLVAMKEILYGTNEKEPQTEAVAQLAQELYNSGLLSTLVADLQLIDFEGKKDVAQIFNNILRRQIGTRTPTVEYICTQQNILFMLLKGYESPEIALNCGIMLRECIRHEPLAKIILWSEQFYDFFRYVEMSTFDIASDAFATFKDLLTRHKLLSAEFLEQHYDRFFSEYEKLLHSENYVTKRQSLKLLGELLLDRHNFTIMTKYISKPENLKLMMNLLRDKSRNIQFEAFHVFKVFVANPNKTQPILDILLKNQAKLIEFLSKFQNDRTEDEQFNDEKTYLVKQIRDLKRPAQQEA
binding [1]: binds | binding [2]: binds
